# Data as given in paper PMC11230511.
# The chains behind the UniProt entries cited, without tags or fusion partners.
# UniProt Q9NXR7: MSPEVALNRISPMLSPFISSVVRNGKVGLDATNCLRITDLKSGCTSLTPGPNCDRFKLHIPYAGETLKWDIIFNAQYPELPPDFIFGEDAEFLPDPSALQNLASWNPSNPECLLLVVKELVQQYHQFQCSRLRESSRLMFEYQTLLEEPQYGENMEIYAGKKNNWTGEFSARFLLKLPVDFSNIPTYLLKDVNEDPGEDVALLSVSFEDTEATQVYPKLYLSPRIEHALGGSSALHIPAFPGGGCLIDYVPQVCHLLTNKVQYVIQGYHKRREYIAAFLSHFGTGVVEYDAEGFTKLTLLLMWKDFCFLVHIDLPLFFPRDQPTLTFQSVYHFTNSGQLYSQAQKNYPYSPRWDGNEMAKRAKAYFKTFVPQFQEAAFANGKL
# UniProt P78527: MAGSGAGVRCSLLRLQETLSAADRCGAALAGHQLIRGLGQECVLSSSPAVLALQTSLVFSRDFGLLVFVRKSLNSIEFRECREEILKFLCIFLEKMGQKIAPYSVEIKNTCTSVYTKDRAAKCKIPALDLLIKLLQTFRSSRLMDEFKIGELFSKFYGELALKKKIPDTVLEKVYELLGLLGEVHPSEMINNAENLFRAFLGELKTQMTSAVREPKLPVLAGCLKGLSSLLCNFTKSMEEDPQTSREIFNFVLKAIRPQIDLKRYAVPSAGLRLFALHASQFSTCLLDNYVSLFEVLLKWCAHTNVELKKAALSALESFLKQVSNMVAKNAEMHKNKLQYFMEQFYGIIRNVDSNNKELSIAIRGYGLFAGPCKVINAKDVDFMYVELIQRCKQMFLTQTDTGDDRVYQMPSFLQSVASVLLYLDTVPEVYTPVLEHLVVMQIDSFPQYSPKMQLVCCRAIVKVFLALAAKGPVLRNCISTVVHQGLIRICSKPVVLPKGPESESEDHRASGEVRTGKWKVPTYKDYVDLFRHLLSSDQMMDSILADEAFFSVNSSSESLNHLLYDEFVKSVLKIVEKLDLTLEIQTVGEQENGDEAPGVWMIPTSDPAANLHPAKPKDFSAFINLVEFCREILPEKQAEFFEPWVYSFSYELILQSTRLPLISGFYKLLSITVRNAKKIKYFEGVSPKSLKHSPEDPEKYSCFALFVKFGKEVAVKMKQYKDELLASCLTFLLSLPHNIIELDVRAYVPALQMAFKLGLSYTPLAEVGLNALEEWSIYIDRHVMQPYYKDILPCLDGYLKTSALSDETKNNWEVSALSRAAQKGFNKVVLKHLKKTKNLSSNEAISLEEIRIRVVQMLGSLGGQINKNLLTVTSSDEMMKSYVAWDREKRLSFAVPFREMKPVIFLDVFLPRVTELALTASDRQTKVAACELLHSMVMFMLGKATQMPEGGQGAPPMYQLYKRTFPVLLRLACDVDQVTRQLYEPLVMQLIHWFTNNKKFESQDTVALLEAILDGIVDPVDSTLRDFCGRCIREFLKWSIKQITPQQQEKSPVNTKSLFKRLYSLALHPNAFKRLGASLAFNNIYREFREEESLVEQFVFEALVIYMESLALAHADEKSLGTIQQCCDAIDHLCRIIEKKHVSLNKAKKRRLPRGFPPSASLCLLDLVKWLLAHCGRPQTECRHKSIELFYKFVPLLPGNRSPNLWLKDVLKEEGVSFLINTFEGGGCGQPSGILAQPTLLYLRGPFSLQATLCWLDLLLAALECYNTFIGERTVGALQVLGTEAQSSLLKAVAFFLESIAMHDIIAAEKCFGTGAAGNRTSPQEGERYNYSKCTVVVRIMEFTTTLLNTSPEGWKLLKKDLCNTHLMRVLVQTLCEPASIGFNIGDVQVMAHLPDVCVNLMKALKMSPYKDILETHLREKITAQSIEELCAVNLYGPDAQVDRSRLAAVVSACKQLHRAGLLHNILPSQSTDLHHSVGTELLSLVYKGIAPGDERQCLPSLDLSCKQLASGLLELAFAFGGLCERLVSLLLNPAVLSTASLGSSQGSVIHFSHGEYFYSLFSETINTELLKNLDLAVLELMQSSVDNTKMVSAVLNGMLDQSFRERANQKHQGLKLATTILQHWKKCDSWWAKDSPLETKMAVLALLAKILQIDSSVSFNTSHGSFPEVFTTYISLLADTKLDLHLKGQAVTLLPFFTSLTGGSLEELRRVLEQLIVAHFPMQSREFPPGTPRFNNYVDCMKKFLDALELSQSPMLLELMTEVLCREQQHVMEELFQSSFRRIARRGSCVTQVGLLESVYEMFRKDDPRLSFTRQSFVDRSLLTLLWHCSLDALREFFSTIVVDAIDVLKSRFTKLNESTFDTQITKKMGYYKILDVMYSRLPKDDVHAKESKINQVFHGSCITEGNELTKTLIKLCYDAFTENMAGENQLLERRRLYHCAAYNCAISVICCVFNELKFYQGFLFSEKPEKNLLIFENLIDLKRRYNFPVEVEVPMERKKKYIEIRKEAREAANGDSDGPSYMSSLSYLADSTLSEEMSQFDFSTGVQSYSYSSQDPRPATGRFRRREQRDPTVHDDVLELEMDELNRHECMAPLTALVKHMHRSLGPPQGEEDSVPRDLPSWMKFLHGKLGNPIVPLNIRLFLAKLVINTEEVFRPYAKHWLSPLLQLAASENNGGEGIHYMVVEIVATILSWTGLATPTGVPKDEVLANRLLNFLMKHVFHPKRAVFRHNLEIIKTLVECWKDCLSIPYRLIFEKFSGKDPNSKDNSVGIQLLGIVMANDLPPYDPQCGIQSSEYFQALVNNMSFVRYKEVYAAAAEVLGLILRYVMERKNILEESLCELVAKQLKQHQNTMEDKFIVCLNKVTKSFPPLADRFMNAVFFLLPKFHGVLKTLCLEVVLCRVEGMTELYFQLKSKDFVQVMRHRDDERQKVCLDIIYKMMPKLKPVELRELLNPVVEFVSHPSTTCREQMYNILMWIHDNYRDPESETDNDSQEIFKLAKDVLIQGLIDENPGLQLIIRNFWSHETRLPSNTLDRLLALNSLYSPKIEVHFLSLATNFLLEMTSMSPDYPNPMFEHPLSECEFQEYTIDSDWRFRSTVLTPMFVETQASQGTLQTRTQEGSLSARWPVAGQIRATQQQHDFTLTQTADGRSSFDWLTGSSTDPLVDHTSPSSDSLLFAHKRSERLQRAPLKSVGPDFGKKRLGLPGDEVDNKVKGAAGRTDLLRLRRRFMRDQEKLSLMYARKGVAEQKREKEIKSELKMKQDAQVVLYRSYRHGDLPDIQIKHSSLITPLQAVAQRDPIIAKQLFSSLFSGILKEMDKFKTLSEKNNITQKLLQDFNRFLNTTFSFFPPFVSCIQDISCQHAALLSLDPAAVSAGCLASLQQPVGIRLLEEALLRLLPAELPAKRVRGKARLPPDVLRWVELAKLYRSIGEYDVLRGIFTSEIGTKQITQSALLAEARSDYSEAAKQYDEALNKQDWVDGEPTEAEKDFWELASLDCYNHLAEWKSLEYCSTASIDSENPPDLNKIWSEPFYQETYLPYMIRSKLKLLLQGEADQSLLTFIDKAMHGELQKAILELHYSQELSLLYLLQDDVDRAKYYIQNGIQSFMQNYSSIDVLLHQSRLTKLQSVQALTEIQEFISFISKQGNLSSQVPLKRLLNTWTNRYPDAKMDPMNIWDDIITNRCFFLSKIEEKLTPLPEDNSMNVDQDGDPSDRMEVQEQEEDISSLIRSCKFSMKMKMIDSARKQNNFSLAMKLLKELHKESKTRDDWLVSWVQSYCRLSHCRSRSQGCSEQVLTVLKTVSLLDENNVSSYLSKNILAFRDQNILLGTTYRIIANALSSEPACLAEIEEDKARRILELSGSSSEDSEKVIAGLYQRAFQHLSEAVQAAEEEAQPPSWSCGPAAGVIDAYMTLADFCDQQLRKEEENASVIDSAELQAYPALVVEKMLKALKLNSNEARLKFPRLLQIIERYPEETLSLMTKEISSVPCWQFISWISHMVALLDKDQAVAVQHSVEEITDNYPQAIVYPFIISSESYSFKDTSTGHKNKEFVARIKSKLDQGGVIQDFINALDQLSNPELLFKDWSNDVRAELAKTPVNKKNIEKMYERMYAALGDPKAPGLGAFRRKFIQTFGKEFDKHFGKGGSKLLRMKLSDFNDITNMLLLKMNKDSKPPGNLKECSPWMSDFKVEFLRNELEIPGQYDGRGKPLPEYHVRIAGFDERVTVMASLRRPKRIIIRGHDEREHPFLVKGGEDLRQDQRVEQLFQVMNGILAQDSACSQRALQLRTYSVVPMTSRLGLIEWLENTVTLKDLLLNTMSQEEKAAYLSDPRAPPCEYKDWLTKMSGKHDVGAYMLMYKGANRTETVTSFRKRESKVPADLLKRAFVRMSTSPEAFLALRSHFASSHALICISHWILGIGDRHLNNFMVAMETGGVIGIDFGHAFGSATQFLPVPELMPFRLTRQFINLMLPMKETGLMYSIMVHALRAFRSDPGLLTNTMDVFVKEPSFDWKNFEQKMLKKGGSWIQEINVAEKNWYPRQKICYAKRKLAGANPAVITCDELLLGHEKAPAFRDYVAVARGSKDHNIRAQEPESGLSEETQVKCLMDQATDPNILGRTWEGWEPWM
# UniProt Q12834: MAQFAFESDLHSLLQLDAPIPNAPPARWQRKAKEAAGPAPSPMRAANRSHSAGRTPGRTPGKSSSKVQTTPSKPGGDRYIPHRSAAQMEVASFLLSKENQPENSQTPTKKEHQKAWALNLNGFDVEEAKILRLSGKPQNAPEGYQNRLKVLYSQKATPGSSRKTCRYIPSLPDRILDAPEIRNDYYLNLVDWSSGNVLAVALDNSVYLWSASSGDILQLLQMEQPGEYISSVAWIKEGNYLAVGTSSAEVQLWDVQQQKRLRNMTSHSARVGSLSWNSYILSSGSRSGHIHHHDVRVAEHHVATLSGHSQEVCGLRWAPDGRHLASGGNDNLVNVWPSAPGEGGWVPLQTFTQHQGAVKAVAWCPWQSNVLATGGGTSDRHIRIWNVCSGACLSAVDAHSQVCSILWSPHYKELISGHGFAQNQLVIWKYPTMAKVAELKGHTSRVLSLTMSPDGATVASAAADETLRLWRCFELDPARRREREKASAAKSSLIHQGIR
# T1: GST-tagged FLCN (folliculin) (human) (UniProt Q8NFG4)
# T1 sequence: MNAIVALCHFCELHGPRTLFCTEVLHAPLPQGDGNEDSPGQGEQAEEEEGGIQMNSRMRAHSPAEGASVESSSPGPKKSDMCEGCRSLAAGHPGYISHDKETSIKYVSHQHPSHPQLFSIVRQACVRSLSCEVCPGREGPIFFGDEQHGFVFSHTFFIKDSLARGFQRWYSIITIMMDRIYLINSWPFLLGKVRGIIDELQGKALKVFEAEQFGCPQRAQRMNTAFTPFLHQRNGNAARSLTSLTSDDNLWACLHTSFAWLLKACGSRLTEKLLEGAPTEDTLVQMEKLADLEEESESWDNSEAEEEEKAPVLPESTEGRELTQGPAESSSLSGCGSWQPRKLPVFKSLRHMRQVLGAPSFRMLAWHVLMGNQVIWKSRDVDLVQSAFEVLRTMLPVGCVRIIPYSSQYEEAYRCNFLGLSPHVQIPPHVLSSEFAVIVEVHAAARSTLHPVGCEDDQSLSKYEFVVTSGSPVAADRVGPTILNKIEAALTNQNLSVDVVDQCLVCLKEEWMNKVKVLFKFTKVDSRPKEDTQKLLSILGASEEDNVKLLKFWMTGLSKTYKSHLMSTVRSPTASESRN
# B1: co-chaperone CDC37 (protein, UniProt Q16543 1-378)
# chain: MVDYSVWDHIEVSDDEDETHPNIDTASLFRWRHQARVERMEQFQKEKEELDRGCRECKRKVAECQRKLKELEVAEGGKAELERLQAEAQQLRKEERSWEQKLEEMRKKEKSMPWNVDTLSKDGFSKSMVNTKPEKTEEDSEEVREQKHKTFVEKYEKQIKHFGMLRRWDDSQKYLSDNVHLVCEETANYLVIWCIDLEVEEKCALMEQVAHQTIVMQFILELAKSLKVDPRACFRQFFTKIKTADRQYMEGFNDELEAFKERVRGRAKLRIEKAMKEYEEEERKKRLGPGGLDPVEVYESLPEELQKCFDVKDVQMLQDAISKMDPTDAKYHMQRCIDSGLWVPNSKASEAKEGEEAGPGDPLLEAVPKTGDEKDVSV
# B2: FLCN interacting protein 1 (FNIP1) (protein, UniProt Q8TF40 1-1166)
# chain: MAPTLFQKLFSKRTGLGAPGRDARDPDCGFSWPLPEFDPSQIRLIVYQDCERRGRNVLFDSSVKRRNEDISVSKLGSDAQVKVFGKCCQLKPGGDSSSSLDSSVTSSSDIKDQCLKYQGSRCSSDANMLGEMMFGSVAMSYKGSTLKIHQIRSPPQLMLSKVFTARTGSSICGSLNTLQDSLEFINQDNNTLKADNNTVINGLLGNIGLSQFCSPRRAFSEQGPLRLIRSASFFAVHSNPMDMPGRELNEDRDSGIARSASLSSLLITPFPSPNSSLTRSCASSYQRRWRRSQTTSLENGVFPRWSIEESFNLSDESCGPNPGIVRKKKIAIGVIFSLSKDEDENNKFNEFFFSHFPLFESHMNKLKSAIEQAMKMSRRSADASQRSLAYNRIVDALNEFRTTICNLYTMPRIGEPVWLTMMSGTPEKNHLCYRFMKEFTFLMENASKNQFLPALITAVLTNHLAWVPTVMPNGQPPIKIFLEKHSSQSVDMLAKTHPYNPLWAQLGDLYGAIGSPVRLARTVVVGKRQDMVQRLLYFLTYFIRCSELQETHLLENGEDEAIVMPGTVITTTLEKGEIEESEYVLVTMHRNKSSLLFKESEEIRTPNCNCKYCSHPLLGQNVENISQQEREDIQNSSKELLGISDECQMISPSDCQEENAVDVKQYRDKLRTCFDAKLETVVCTGSVPVDKCALSESGLESTEETWQSEKLLDSDSHTGKAMRSTGMVVEKKPPDKIVPASFSCEAAQTKVTFLIGDSMSPDSDTELRSQAVVDQITRHHTKPLKEERGAIDQHQETKQTTKDQSGESDTQNMVSEEPCELPCWNHSDPESMSLFDEYFNDDSIETRTIDDVPFKTSTDSKDHCCMLEFSKILCTKNNKQNNEFCKCIETVPQDSCKTCFPQQDQRDTLSILVPHGDKESSDKKIAVGTEWDIPRNESSDSALGDSESEDTGHDMTRQVSSYYGGEQEDWAEEDEIPFPGSKLIEVSAVQPNIANFGRSLLGGYCSSYVPDFVLQGIGSDERFRQCLMSDLSHAVQHPVLDEPIAEAVCIIADMDKWTVQVASSQRRVTDNKLGKEVLVSSLVSNLLHSTLQLYKHNLSPNFCVMHLEDRLQELYFKSKMLSEYLRGQMRVHVKELGVVLGIESSDLPLLAAVASTHSPYVAQILL
# Biological target: T1, GST-tagged FLCN (folliculin) (human)
# Assay: affinity purification with mass spectrometry; GST-FLCN overexpressed in HEK293 cells, purified on glutathione-Sepharose beads, bound proteins separated by SDS-PAGE, gel sectioned, LC-MS/MS
row,binding,Molecule
1,binds,"BRCA1 A complex component, BRE (from UniProt Q9NXR7 1-383)"
2,binds,DNA-dependent protein kinase catalytic subunit (DNA-PKcs) (from UniProt P78527 1-4128) (enzyme)
3,binds,CDC20 (from UniProt Q12834 1-499)
4,binds,TP53 (from UniProt P04637 1-393)
5,binds,B1
6,binds,B2

# Results are given in words; binding and its absence hold for the method and conditions named. In cells and extracts the contact can be indirect. A yes stands for co-enrichment or nearness to the bait. Other partners may have been found. Sequences can lack the tags named with a protein.
